Results are given in words; binding and its absence hold for the method and conditions named. Binding seen in cells or lysates may run through a third protein. Binding can be weak; no strength is given.
Target: T1, wild type mouse Vav1, COS1 (mouse) (UniProt P27870)
T1 sequence: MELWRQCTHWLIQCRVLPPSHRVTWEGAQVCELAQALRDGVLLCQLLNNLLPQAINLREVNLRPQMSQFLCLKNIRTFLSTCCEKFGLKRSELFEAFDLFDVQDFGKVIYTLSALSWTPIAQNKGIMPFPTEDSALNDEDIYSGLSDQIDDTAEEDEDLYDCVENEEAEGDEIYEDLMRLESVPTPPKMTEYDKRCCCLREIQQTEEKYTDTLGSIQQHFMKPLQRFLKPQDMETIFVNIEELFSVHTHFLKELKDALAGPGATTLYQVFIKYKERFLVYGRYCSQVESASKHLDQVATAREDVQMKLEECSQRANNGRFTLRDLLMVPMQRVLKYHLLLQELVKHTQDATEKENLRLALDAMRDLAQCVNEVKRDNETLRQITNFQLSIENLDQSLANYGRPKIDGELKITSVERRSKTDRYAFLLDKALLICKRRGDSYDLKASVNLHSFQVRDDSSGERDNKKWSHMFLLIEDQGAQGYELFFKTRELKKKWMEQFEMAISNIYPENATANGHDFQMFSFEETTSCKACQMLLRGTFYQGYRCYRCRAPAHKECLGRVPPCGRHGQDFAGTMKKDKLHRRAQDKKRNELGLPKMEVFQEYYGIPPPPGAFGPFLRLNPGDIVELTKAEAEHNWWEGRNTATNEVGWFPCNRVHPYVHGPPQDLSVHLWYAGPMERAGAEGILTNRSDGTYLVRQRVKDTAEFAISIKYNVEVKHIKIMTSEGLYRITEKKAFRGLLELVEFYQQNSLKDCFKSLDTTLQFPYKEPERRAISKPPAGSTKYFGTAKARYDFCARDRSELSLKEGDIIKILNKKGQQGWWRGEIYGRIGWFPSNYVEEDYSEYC
Experiment: co-IP; anti-Vav1 immunoprecipitation from clarified lysates of COS1 cells co-transfected with Vav1 (or mutants), Fyn and M2 (or mutants); 10 mM Tris-HCl pH 7.4, 100 mM NaCl, 0.5% NP-40, 2 h at 4°C; western blot

Substance | binding
M2 Y129D mutant (Myc-tagged), COS1 (murine gammaherpesvirus 68 (MHV-68)) | binds
M2 Y120D mutant (Myc-tagged), COS1 (murine gammaherpesvirus 68 (MHV-68)) | binds

Source: PMC2244710, “The Gammaherpesvirus m2 Protein Manipulates the Fyn/Vav Pathway through a Multidocking Mechanism of Assembly” (PLoS ONE, 2008)
